Results are given in words; binding and its absence hold for the method and conditions named. Binding seen in cells or lysates may run through a third protein. Here binding means that the protein was enriched with, or labelled near, the bait; the list need not be complete.
Molecular target: T1, Calcium/calmodulin-dependent serine protein kinase (CASK) (mouse (endogenous in primary GM-macrophages)) (UniProt O70589)
T1 sequence: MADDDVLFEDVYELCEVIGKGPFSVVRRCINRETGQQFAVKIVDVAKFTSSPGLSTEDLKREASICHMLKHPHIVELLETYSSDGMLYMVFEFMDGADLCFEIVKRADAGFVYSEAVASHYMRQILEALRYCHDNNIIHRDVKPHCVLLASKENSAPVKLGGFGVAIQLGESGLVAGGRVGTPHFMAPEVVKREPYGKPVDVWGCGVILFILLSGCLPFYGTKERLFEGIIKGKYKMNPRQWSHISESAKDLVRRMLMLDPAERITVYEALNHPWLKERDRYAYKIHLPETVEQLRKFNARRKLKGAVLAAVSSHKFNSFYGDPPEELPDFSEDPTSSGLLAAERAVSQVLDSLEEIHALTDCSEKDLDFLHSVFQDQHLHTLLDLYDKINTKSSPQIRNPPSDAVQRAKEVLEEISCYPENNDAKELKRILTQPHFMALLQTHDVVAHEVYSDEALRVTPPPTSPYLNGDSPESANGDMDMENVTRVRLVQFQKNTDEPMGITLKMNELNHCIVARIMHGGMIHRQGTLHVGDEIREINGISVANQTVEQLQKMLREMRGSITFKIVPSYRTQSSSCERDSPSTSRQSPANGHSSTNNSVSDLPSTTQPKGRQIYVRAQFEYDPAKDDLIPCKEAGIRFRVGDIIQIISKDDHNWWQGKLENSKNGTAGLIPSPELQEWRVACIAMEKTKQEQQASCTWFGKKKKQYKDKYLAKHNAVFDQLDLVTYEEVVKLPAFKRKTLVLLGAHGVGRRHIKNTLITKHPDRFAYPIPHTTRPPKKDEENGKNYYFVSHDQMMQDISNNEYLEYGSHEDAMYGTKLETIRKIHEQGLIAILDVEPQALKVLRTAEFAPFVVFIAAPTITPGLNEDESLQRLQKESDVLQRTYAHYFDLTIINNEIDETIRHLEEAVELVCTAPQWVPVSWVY
Test: affinity purification with mass spectrometry

Chains of the proteins cited; added tags and fusions are not shown.
UniProt P03466: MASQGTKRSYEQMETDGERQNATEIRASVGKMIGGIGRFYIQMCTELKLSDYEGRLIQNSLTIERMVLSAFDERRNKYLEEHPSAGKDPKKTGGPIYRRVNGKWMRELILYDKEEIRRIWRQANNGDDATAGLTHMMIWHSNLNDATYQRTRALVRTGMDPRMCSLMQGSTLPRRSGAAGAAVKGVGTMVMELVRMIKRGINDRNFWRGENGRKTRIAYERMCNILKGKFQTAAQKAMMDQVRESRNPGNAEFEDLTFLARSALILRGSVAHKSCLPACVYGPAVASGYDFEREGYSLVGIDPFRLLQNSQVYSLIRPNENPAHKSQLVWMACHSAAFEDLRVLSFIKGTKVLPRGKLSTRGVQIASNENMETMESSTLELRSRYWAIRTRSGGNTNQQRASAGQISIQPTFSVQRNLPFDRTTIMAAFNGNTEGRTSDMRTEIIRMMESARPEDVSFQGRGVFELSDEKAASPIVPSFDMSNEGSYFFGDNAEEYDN
UniProt P41155: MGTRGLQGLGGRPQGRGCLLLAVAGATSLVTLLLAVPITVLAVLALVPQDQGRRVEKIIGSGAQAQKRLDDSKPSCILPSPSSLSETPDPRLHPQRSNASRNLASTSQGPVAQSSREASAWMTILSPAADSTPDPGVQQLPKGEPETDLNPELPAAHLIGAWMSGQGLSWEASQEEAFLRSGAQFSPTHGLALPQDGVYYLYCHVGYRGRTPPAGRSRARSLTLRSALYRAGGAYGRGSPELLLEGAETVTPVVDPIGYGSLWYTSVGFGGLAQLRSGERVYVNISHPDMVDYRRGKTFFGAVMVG

Row | Substance | binding
1 | IAV nucleoprotein (NP) (from UniProt P03466 1-498) | binds
2 | Lymphotoxin-beta (from UniProt P41155 1-306) | binds

— publication PMC11754051
